Results as given in patent US20100056475 (published 2010).

Experiment: general procedure: hybrid (solid and solution phase) peptide synthesis; DCC/HOBt; DIC or TBTU or HATU and HOBt with DIPEA
Conditions: TFA salt or HCl salt

| Substance | conjugation yield (conjugation step) [%] | step yield (late stage modification step) [%] |
| --- | --- | --- |
| 6^A,6^D-dideoxy-6^A,6^D-di(Gly-Arg-Arg-Arg-Gly-Lys-Lys-Lys-NH2)amino-β-cyclodextrin (GRRRGKKK; amidated, on beta-cyclodextrin; printed: Gly-Arg-Arg-Arg-Gly-Lys-Lys-Lys-) | 21 | – |
| 6^A,6^D-dideoxy-6^A,6^D-di[Gly-Lys(Boc)-Lys(Boc)-Lys(Boc)-Boc]amino-β-cyclodextrin | – | 66 |
